Measurements as given in PubChem BioAssay AID330 (DTP/NCI, 2004).
The list shows only some results of the screen, not a fair sample: it gathers tests that were run many times, whatever their T/C, doses with no T/C, and many T/C values between a quarter and a half above the control. Other doses and runs of a compound stand elsewhere. T/C is the treated group as % of the vehicle group. Some entries give survivors of the animals treated and no T/C: the source files T/C as zero there, which appears to mark a toxic dose or a test without result, not a measured value. Some survivor counts are full or nearly so, which does not show that the dose was tolerated: survival well below the control is almost never listed, so the zero probably covers shortened survival too. Survivors were counted at the toxicity check, usually on the fifth day, unless a day is given; later deaths do not show. Schedules are NCI's codes, taken here to give the interval after Q, in days (D) or hours (H), and the number of doses after X. Some doses were run more than once; the results are listed from low to high. Some structures stand for samples that the source files as different forms (salt, stereo form or complex); doses refer to the form tested. Where survival is the endpoint, the PubChem record calls one and a half times the control and up active, and a quarter to a half above the control has no call in these data; cut-offs in other NCI protocols can differ. Some T/C values carry the count of animals alive at the toxicity check (mostly the fifth day); without a count, all were alive then.

Tested on: P388 leukemia ip, CD2F1 mice, survival T/C
Assay: NCI In Vivo Anticancer Drug Screen. Data for tumor model P388 Leukemia (intraperitoneal) in CD2F1 (CDF1) mice
Conditions: T/C endpoint: median survival time, higher T/C = longer survival
[1] = dose: 200.0 mg/kg/injection, schedule: Q01DX005 (ip), vehicle: saline with Tween-80
[2] = dose: 100.0 mg/kg/injection, schedule: Q01DX005 (ip), vehicle: saline with Tween-80
[3] = dose: 100.0 mg/kg/injection, schedule: Q04DX003 (ip), vehicle: saline with Tween-80
[4] = dose: 200.0 mg/kg/injection, schedule: Q04DX003 (ip), vehicle: saline with Tween-80
[5] = dose: 50.0 mg/kg/injection, schedule: Q01DX009 (ip), vehicle: saline with Tween-80
[6] = dose: 120.0 mg/kg/injection, schedule: Q01DX005 (ip), vehicle: saline with Tween-80

## Cc1nsc(N)n1
dose: 6.25 mg/kg/injection, schedule: Q01DX009 (ip), vehicle: saline
  survivor count: 6 of 6

## CN(N=O)C(=O)NNC(=O)N(C)N=O
dose: 15.0 mg/kg/injection, schedule: Q01DX009 (ip), vehicle: saline with Tween-80
  T/C: 127 % of control
dose: 60.0 mg/kg/injection, schedule: Q01DX009 (ip), vehicle: saline with Tween-80
  T/C: 131 % of control
dose: 60.0 mg/kg/injection, schedule: Q04DX003 (ip), vehicle: saline with Tween-80
  T/C: 125 % of control
dose: 90.0 mg/kg/injection, schedule: Q04DX003 (ip), vehicle: saline with Tween-80
  T/C: 127 % of control [5 of 6 alive]

## CCOc1c(N=Nc2ccc(O)cc2)c(C)nn1C(N)=S
dose: 60.0 mg/kg/injection, schedule: Q01DX005 (ip), vehicle: Klucel + Tween-80
  survivor count: 0 of 6
dose: 120.0 mg/kg/injection, schedule: Q01DX005 (ip), vehicle: Klucel + Tween-80
  survivor count: 0 of 6
dose: 240.0 mg/kg/injection, schedule: Q01DX005 (ip), vehicle: Klucel + Tween-80
  survivor count: 0 of 6

## COc1ccc(SCC(=O)c2ccc([N+](=O)[O-])o2)cc1
dose: 200.0 mg/kg/injection, schedule: Q01DX009 (ip), vehicle: suspension in saline
  survivor count: 5 of 6

## O=C(O)/C=N/NS(=O)(=O)c1cccc([N+](=O)[O-])c1
dose: 12.5 mg/kg/injection, schedule: Q01DX009 (ip), vehicle: other
  T/C: 138 % of control
dose: 50.0 mg/kg/injection, schedule: Q01DX009 (ip), vehicle: other
  T/C: 131 and 134 % of control
dose: 100.0 mg/kg/injection, schedule: Q01DX009 (ip), vehicle: other
  T/C: 130, 137, 141 % of control
dose: 200.0 mg/kg/injection, schedule: Q01DX009 (ip), vehicle: other
  survivor count: 3 of 6 and 5 of 6
dose: 400.0 mg/kg/injection, schedule: Q01DX009 (ip), vehicle: other
  survivor count: 3 of 6 and 4 of 6

## O=C1C=CC(=O)C(C2OC(=O)C(Cl)=C2Cl)=C1 (stereo unspecified)
[1]
  survivor count: 2 of 6

## CC(C)c1cc(C(=O)O)c(O)c(C(C)C)c1.CC(C)c1cc(C(=O)O)c(O)c(C(C)C)c1.[Cu]
dose: 50.0 mg/kg/injection, schedule: Q01DX005 (ip), vehicle: saline with Tween-80
  survivor count: 0 of 6
[2]
  survivor count: 0 of 6
[1]
  survivor count: 0 of 6

## O=C(O)CCc1c[nH]c2ccc(N(CCCl)CCCl)cc12
dose: 0.3 mg/kg/injection, schedule: Q04DX003 (ip), vehicle: saline with Tween-80
  survivor count: 5 of 6
dose: 0.5 mg/kg/injection, schedule: Q01DX009 (ip), vehicle: saline
  T/C: 129 % of control
dose: 1.0 mg/kg/injection, schedule: Q01DX009 (ip), vehicle: saline
  T/C: 141 % of control
dose: 5.0 mg/kg/injection, schedule: Q04DX003 (ip), vehicle: saline with Tween-80
  survivor count: 3 of 6
dose: 10.0 mg/kg/injection, schedule: Q04DX003 (ip), vehicle: saline with Tween-80
  survivor count: 1 of 6
dose: 20.0 mg/kg/injection, schedule: Q04DX003 (ip), vehicle: saline with Tween-80
  survivor count: 0 of 6
[3]
  survivor count: 0 of 6
[4]
  survivor count: 0 of 6
dose: 400.0 mg/kg/injection, schedule: Q04DX003 (ip), vehicle: saline with Tween-80
  survivor count: 0 of 6

## Nc1nccc2c1ncn2C1OC(CO)C(O)C1O (stereo unspecified)
dose: 18.75 mg/kg/injection, schedule: Q03HX024 (ip), vehicle: saline with Tween-80
  T/C: 128 % of control
[5]
  survivor count: 3 of 6 and 6 of 6
dose: 75.0 mg/kg/injection, schedule: Q03HX024 (ip), vehicle: saline with Tween-80
  survivor count: 3 of 6 and 6 of 6
dose: 150.0 mg/kg/injection, schedule: Q03HX024 (ip), vehicle: saline with Tween-80
  survivor count: 1 of 6 and 3 of 6
dose: 300.0 mg/kg/injection, schedule: Q03HX024 (ip), vehicle: saline with Tween-80
  survivor count: 0 of 6
dose: 400.0 mg/kg/injection, schedule: Q01DX009 (ip), vehicle: saline with Tween-80
  survivor count: 0 of 6 and 5 of 6

## N#CCc1ccc(N(CCO)CCO)cc1
[2]
  survivor count: 5 of 5
[1]
  survivor count: 0 of 5

## c1cncc(-c2n[nH]c3c2CCc2ccccc2-3)c1
dose: 9.4 mg/kg/injection, schedule: Q01DX009 (ip), vehicle: other
  survivor count: 3 of 3
dose: 18.8 mg/kg/injection, schedule: Q01DX009 (ip), vehicle: other
  survivor count: 3 of 3
dose: 25.0 mg/kg/injection, schedule: Q01DX009 (ip), vehicle: other
  T/C: 126 % of control

## CC1(C)N=c2cc3c(cc2N1c1ccc(Cl)cc1)=Nc1ccccc1N3c1ccc(Cl)cc1
[6]
  survivor count: 6 of 6
dose: 240.0 mg/kg/injection, schedule: Q01DX005 (ip), vehicle: saline with Tween-80
  survivor count: 6 of 6

## O=C(CC(O)(C(F)(F)F)C(F)(F)F)c1ccco1
[5]
  T/C: 130 % of control
dose: 75.0 mg/kg/injection, schedule: Q01DX009 (ip), vehicle: saline with Tween-80
  T/C: 140 % of control [5 of 6 alive]

## CC(CC(=O)O)C(C(=O)O)C(=O)O (stereo unspecified)
dose: 200.0 mg/kg/injection, schedule: Q01DX005 (ip), vehicle: saline
  survivor count: 5 of 5

## NNc1nncc2c1[nH]c1ccccc12
dose: 12.5 mg/kg/injection, schedule: Q01DX001 (ip), vehicle: saline with Tween-80
  survivor count: 3 of 5
dose: 25.0 mg/kg/injection, schedule: Q01DX001 (ip), vehicle: saline with Tween-80
  survivor count: 3 of 5
dose: 50.0 mg/kg/injection, schedule: Q01DX001 (ip), vehicle: saline with Tween-80
  survivor count: 0 of 5
dose: 100.0 mg/kg/injection, schedule: Q01DX001 (ip), vehicle: suspension in saline
  survivor count: 3 of 5
dose: 200.0 mg/kg/injection, schedule: Q01DX001 (ip), vehicle: suspension in saline
  survivor count: 0 of 5
dose: 400.0 mg/kg/injection, schedule: Q01DX001 (ip), vehicle: suspension in saline
  survivor count: 0 of 5

## CC(C)(C)OC(=O)NC(COCc1ccccc1)C(=O)ON1C(=O)CCC1=O (stereo unspecified)
[1]
  survivor count: 2 of 6

## COc1ccc(C(C)=O)cc1CSC(=S)N1CCSCC1
[6]
  survivor count: 6 of 6

## COc1nc(N)c2ncn(C3CCCO3)c2n1 (stereo unspecified)
dose: 50.0 mg/kg/injection, schedule: Q01DX001 (ip), vehicle: Klucel (hydroxypropylcellulose) (HPC)
  survivor count: 1 of 6
dose: 100.0 mg/kg/injection, schedule: Q01DX001 (ip), vehicle: Klucel (hydroxypropylcellulose) (HPC)
  survivor count: 3 of 6
dose: 200.0 mg/kg/injection, schedule: Q01DX001 (ip), vehicle: Klucel (hydroxypropylcellulose) (HPC)
  survivor count: 1 of 6
dose: 400.0 mg/kg/injection, schedule: Q01DX001 (ip), vehicle: Klucel (hydroxypropylcellulose) (HPC)
  survivor count: 0 of 6

## C=C1C(=O)OC2C1C(OC(=O)/C(C)=C\C)CC1(CO1)C1C(O)C=C(C)C21O (stereo unspecified)
[3]
  survivor count: 4 of 6
[4]
  survivor count: 0 of 6

## NCC(=O)OCN1C(=O)C2C3C=CC(C2C1=O)C1C2C(=O)N(COC(=O)CN)C(=O)C2C31 (stereo unspecified)
dose: 100.0 mg/kg/injection, schedule: Q01DX009 (ip), vehicle: water
  T/C: 135 and 149 % of control
dose: 200.0 mg/kg/injection, schedule: Q01DX009 (ip), vehicle: water
  T/C: 132 % of control
dose: 206.0 mg/kg/injection, schedule: Q01DX009 (ip), vehicle: water
  survivor count: 2 of 6

## CCOC(=O)C(Cc1ccc(O)cc1)NCc1ccc(N(CCCl)CCCl)cc1 (stereo unspecified)
[5]
  T/C: 132 and 138 % of control
dose: 100.0 mg/kg/injection, schedule: Q01DX009 (ip), vehicle: saline with Tween-80
  T/C: 146 % of control
dose: 200.0 mg/kg/injection, schedule: Q01DX009 (ip), vehicle: saline with Tween-80
  survivor count: 0 of 6

## COC1=CC(=O)C(c2cc(OC(C)=O)c(OC)cc2OC(C)=O)=CC1=O
dose: 50.0 mg/kg/injection, schedule: Q01DX005 (ip), vehicle: saline + Tween-80 + alcohol
  survivor count: 1 of 5
dose: 100.0 mg/kg/injection, schedule: Q01DX005 (ip), vehicle: saline + Tween-80 + alcohol
  survivor count: 0 of 5
dose: 200.0 mg/kg/injection, schedule: Q01DX005 (ip), vehicle: saline + Tween-80 + alcohol
  survivor count: 0 of 5
